Reference: PubChem BioAssay AID1224830 (NIAID, 2016)

Purpose: 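Genes whose knock-down alters the TNF-alpha reporter response to LPS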 (primary screen)
System: human THP-1 monocytic leukaemia cells, TNF dual-luciferase reporter clone, PMA-differentiated to macrophage-like cells
Reagents: siRNA pool against human genes, 50 nM
Duration: LPS for 4 h, given about 3 days after siRNA transfection
Conditions: bacterial LPS (TLR4 ligand), 10 ng/ml
Measurement: 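Ratio of firefly to renilla light, scaled to the plate median and expressed as a robust z-score per replicate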
Direction: TNF reporter robust z-score: higher = stronger TNF reporter response to LPS
Rule for the call: 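Each well counts as active if its z-score is over 2.8 or under -1.5; controls are left without a call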
The deposit covers about 18,000 reagents; this is a random part of them. About 2,900 of all reagents (16%) were called active. 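Calls are made per well; low scores hint the gene aids the LPS response, high scores that it dampens it.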 A number with no mark means an inactive call. Repeated entries: four replicate wells of each siRNA pool. Reagent sequences are not shown.

What is on record for SERPINF1 (GeneID 5176)?
TNF reporter robust z-score: 0.83

For SERPINF1 (GeneID 5176), what was measured?
TNF reporter robust z-score: -0.59

With SERPINF1 (GeneID 5176), how do the results read?
TNF reporter robust z-score: 2.32

With SERPINF1 (GeneID 5176), what does the deposit list?
TNF reporter robust z-score: 1.04

Which result is listed for MRPL18 (GeneID 29074)?
TNF reporter robust z-score: 0.27

How did the screen score MRPL18 (GeneID 29074)?
TNF reporter robust z-score: 2.39

For MRPL18 (GeneID 29074), what does the deposit list?
TNF reporter robust z-score: 1.05

What did the screen give for MRPL18 (GeneID 29074)?
TNF reporter robust z-score: 3 (active)

How did the screen score TICRR (GeneID 90381)?
TNF reporter robust z-score: 3.72 (active)

With TICRR (GeneID 90381), what does the deposit list?
TNF reporter robust z-score: 2.06

With TICRR (GeneID 90381), what does the deposit list?
TNF reporter robust z-score: 3.43 (active)

How did the screen score TICRR (GeneID 90381)?
TNF reporter robust z-score: 3.74 (active)

For DCAF12 (GeneID 25853), what does the deposit list?
TNF reporter robust z-score: 3.8 (active)

How did the screen score DCAF12 (GeneID 25853)?
TNF reporter robust z-score: 0.91

For DCAF12 (GeneID 25853), how do the results read?
TNF reporter robust z-score: 1.34

For DCAF12 (GeneID 25853), what was measured?
TNF reporter robust z-score: 1.24

What did the screen give for BMX (GeneID 660)?
TNF reporter robust z-score: -1.38

How did the screen score BMX (GeneID 660)?
TNF reporter robust z-score: 0.23

Which result is listed for BMX (GeneID 660)?
TNF reporter robust z-score: -0.91

For BMX (GeneID 660), what was measured?
TNF reporter robust z-score: -0.87

How did the screen score RASAL3 (GeneID 64926)?
TNF reporter robust z-score: -0.52

For RASAL3 (GeneID 64926), what does the deposit list?
TNF reporter robust z-score: -0.03

With RASAL3 (GeneID 64926), how do the results read?
TNF reporter robust z-score: 0.27

How did the screen score RASAL3 (GeneID 64926)?
TNF reporter robust z-score: -0.01

With BABAM1 (GeneID 29086), what was measured?
TNF reporter robust z-score: 2.24

With BABAM1 (GeneID 29086), how do the results read?
TNF reporter robust z-score: 0.93

With BABAM1 (GeneID 29086), what does the deposit list?
TNF reporter robust z-score: 1.38

With BABAM1 (GeneID 29086), what was measured?
TNF reporter robust z-score: 0.98

How did the screen score C18orf32 (GeneID 497661)?
TNF reporter robust z-score: 0.41

What is on record for C18orf32 (GeneID 497661)?
TNF reporter robust z-score: -0.08

With C18orf32 (GeneID 497661), how do the results read?
TNF reporter robust z-score: -0.65

With C18orf32 (GeneID 497661), how do the results read?
TNF reporter robust z-score: 0.23

With KRT35 (GeneID 3886), how do the results read?
TNF reporter robust z-score: 0.27

What is on record for KRT35 (GeneID 3886)?
TNF reporter robust z-score: 0.76

Which result is listed for KRT35 (GeneID 3886)?
TNF reporter robust z-score: -1.22

With KRT35 (GeneID 3886), what does the deposit list?
TNF reporter robust z-score: -0.03

With R3HCC1L (GeneID 27291), what does the deposit list?
TNF reporter robust z-score: -0.41

For R3HCC1L (GeneID 27291), what was measured?
TNF reporter robust z-score: 0.79

For R3HCC1L (GeneID 27291), what was measured?
TNF reporter robust z-score: 0.57

How did the screen score R3HCC1L (GeneID 27291)?
TNF reporter robust z-score: 1.1

How did the screen score FAM13B (GeneID 51306)?
TNF reporter robust z-score: -1.6 (active)

With FAM13B (GeneID 51306), how do the results read?
TNF reporter robust z-score: 0.53

With FAM13B (GeneID 51306), what does the deposit list?
TNF reporter robust z-score: 0.76

How did the screen score FAM13B (GeneID 51306)?
TNF reporter robust z-score: -0.36

Which result is listed for LAPTM5 (GeneID 7805)?
TNF reporter robust z-score: 2.03

With LAPTM5 (GeneID 7805), what was measured?
TNF reporter robust z-score: 2.92 (active)

Which result is listed for LAPTM5 (GeneID 7805)?
TNF reporter robust z-score: -0.5

With LAPTM5 (GeneID 7805), what does the deposit list?
TNF reporter robust z-score: 0.55

For SPATA13 (GeneID 221178), how do the results read?
TNF reporter robust z-score: -0.78

How did the screen score SPATA13 (GeneID 221178)?
TNF reporter robust z-score: -0.76

What is on record for SPATA13 (GeneID 221178)?
TNF reporter robust z-score: -0.42

What is on record for SPATA13 (GeneID 221178)?
TNF reporter robust z-score: -0.43

Which result is listed for CXCL6 (GeneID 6372)?
TNF reporter robust z-score: 1.39

With CXCL6 (GeneID 6372), what does the deposit list?
TNF reporter robust z-score: 1.92

With CXCL6 (GeneID 6372), how do the results read?
TNF reporter robust z-score: 1.34

What is on record for CXCL6 (GeneID 6372)?
TNF reporter robust z-score: 2.45

Which result is listed for ADPRM (GeneID 56985)?
TNF reporter robust z-score: -0.5

How did the screen score ADPRM (GeneID 56985)?
TNF reporter robust z-score: -0.08

For ADPRM (GeneID 56985), what was measured?
TNF reporter robust z-score: 0.11

Which result is listed for ADPRM (GeneID 56985)?
TNF reporter robust z-score: -0.02
